Source: US20210139966A1, “ENHANCEMENT OF NUCLEIC ACID POLYMERIZATION BY MINOR GROOVE BINDING MOIETIES” (priority 2018, published 2021)
At least one structure is not confirmed: it was looked up by name or label, or the drawing left a doubt.

Tested on: DNA polymerase
Experiment: Primer extension reaction with XNTPs as substrates (additive screen and MGB titration), gel electrophoresis of Xpandomer products
Assay type: biochemical
Source text: However, initial transcription of the sequence of the natural DNA template onto the measurable Xpandomer relies on the ability of DNA polymerase to utilize XNTPs as substrates (the generalized structure of an XNTP is discussed herein with reference to FIG. 1A and FIG. 2). […] In an effort to improve the efficiency and accuracy of XNTP polymerization into Xpandomers, a wide variety of additives was screened for the ability to enhance DNA polymerase primer extension reactions using XNTPs as substrates.
A typical primer extension reaction includes the following reagents: 2 pmol primer, 2.2 pmol 45 mer oligonucleotide template, 50 pmol of each XNTP (XATP, XCTP, XGTP, and XTTP), 50 mM Tris HCl, pH 6.79, 200 mM NaCl, 20% PEG, 5% NMS, 0.5 nmol polyphosphate 60.19, 0.3 mM MnCl2, and 0.6 μg of purified recombinant DNA polymerase protein. Reactions are run for 1 hr at 23° C. Reaction products (i.e. constrained Xpandomers) are treated to cleave the phosphoramidate bonds, thereby generating linearized Xpandomers. Reaction products are analyzed using gel electrophoresis on 4-12% acrylamide gels to resolve and visualize Xpandomer products of different lengths. For the additive screen, reaction additives were typically tested in the micro to millimolar range. […]

CCCCCCCCCCCCCCCC[n+]1ccccc1 [Cetylpyridinium chloride]
Extension Effect: Inhibitory
